This is one part of the list. Residues, ends and D or L forms follow the SMILES beside them. *: point of attachment. Cbz = O=C(OCc1ccccc1)*
Experiments:
Experiment in all cases: log2 fold change, soluble protein after heating vs DMSO (PISA); higher = thermal stabilisation; K562 cells, 10 uM, 30 min; active = over 0.2 and 3.5 SD of the protein, either way, in both replicates (recomputed)
IRAK-1-4 Inhibitor I = compound: C1COCCN1CCN2C3=CC=CC=C3N=C2NC(=O)C4=CC(=CC=C4)[N+](=O)[O-] [IRAK-1-4 Inhibitor I]
Method in brief: (§1)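 Soluble protein was defined as the supernatant after 21,000xg for 90 min. It came from K562 cells at 2×10^6 cells/mL given 10 μM compound for 30 min, heated in aliquots for 3 min across 48°C-58°C, pooled, and extracted in PBS with 0.5% NP-40 at 4°C, and was quantified by TMTpro 16plex LC-MS/MS with equalised channel sums. Thermal stability against control samples, from duplicates, is reported as log2 fold change.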

Amino acid sequences for entries named in this document (tags omitted). A change or cut given only in a name is not applied to a line headed by its entry.
UniProt Q13438: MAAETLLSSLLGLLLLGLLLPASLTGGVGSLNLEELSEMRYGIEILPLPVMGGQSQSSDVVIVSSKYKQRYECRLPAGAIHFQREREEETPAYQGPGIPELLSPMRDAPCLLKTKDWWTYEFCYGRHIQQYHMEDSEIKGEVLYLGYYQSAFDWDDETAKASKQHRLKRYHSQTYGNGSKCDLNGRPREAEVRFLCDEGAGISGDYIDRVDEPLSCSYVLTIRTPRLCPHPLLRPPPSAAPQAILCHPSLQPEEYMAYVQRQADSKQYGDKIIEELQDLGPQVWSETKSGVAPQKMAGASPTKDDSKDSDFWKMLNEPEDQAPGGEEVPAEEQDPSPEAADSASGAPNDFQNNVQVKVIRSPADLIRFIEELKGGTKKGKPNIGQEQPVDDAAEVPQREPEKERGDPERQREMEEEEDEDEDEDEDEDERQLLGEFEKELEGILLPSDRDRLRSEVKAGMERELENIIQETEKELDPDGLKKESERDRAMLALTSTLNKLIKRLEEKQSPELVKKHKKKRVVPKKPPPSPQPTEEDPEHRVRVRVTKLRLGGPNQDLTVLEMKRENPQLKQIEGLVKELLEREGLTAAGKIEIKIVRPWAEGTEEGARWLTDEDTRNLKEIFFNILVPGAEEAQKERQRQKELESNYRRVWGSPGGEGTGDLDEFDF
UniProt Q86WC4: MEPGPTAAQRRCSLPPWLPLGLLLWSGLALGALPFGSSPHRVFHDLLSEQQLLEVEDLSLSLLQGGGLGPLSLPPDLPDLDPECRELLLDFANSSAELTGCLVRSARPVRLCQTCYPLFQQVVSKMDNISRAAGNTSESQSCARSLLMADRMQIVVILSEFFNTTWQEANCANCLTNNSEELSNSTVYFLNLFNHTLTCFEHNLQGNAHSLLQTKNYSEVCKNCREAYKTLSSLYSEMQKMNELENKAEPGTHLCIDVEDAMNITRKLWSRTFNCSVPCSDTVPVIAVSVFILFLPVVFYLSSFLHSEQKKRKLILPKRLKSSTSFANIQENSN
UniProt O60313: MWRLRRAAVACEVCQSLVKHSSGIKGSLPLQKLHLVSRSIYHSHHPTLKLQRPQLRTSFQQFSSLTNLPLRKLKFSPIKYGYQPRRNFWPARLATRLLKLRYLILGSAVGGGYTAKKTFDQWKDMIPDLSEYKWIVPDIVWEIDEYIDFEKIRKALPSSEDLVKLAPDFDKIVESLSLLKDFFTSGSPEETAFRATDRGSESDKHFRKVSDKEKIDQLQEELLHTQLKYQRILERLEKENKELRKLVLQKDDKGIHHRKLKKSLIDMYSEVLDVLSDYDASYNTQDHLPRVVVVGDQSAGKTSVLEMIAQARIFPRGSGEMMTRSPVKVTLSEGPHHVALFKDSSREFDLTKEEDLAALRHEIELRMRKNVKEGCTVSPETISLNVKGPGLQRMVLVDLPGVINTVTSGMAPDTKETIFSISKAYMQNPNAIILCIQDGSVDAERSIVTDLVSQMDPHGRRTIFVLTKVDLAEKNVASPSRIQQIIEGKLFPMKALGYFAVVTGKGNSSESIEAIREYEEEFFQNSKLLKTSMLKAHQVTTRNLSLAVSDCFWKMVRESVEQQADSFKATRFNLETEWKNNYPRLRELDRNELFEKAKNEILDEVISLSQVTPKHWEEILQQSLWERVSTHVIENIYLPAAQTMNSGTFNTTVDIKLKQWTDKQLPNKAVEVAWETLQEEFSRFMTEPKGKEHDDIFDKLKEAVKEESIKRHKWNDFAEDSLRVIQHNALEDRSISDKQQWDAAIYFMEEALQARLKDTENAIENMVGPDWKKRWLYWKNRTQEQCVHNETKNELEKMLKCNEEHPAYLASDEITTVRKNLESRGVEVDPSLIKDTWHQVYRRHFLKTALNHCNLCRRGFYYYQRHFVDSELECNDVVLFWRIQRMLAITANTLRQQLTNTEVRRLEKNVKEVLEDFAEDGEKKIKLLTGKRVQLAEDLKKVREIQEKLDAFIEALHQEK
UniProt Q9BVL2: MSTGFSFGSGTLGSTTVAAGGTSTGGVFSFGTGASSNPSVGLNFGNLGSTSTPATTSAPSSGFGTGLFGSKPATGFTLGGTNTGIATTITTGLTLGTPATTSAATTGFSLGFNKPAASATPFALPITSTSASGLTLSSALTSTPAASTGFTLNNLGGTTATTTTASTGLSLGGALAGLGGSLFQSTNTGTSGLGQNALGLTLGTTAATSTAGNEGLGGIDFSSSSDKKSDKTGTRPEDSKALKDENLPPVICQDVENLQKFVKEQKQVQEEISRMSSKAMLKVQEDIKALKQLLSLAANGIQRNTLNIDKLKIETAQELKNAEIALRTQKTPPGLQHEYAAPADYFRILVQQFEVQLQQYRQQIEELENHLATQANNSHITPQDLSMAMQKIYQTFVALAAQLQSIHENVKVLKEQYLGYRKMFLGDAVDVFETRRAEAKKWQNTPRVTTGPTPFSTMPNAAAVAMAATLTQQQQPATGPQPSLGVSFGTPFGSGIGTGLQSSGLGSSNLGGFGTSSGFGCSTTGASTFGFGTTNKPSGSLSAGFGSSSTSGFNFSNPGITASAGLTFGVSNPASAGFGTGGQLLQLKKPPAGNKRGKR
UniProt Q96MF7: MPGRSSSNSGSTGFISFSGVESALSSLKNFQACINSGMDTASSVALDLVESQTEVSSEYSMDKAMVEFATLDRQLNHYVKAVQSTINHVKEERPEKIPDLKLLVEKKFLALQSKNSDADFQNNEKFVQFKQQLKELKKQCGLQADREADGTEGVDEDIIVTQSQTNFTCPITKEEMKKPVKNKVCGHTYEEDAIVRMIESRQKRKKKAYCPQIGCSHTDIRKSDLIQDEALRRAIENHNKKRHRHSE
UniProt P49757: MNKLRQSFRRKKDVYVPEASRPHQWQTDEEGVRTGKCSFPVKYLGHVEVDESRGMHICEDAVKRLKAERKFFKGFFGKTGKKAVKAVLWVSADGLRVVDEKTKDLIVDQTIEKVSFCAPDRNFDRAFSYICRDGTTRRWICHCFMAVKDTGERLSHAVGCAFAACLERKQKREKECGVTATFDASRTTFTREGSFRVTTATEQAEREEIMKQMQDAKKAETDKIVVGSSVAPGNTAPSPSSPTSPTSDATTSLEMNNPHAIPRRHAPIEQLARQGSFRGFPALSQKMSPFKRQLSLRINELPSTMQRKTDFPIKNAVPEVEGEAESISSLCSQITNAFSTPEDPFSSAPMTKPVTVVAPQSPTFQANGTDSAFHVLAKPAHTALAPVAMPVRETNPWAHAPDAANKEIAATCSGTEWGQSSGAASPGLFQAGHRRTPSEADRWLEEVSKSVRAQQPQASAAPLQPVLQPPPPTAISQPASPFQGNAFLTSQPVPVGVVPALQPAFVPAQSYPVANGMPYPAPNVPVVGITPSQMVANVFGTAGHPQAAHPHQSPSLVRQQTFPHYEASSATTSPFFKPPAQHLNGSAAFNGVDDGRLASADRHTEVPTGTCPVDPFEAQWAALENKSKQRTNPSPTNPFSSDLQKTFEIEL
UniProt P57740: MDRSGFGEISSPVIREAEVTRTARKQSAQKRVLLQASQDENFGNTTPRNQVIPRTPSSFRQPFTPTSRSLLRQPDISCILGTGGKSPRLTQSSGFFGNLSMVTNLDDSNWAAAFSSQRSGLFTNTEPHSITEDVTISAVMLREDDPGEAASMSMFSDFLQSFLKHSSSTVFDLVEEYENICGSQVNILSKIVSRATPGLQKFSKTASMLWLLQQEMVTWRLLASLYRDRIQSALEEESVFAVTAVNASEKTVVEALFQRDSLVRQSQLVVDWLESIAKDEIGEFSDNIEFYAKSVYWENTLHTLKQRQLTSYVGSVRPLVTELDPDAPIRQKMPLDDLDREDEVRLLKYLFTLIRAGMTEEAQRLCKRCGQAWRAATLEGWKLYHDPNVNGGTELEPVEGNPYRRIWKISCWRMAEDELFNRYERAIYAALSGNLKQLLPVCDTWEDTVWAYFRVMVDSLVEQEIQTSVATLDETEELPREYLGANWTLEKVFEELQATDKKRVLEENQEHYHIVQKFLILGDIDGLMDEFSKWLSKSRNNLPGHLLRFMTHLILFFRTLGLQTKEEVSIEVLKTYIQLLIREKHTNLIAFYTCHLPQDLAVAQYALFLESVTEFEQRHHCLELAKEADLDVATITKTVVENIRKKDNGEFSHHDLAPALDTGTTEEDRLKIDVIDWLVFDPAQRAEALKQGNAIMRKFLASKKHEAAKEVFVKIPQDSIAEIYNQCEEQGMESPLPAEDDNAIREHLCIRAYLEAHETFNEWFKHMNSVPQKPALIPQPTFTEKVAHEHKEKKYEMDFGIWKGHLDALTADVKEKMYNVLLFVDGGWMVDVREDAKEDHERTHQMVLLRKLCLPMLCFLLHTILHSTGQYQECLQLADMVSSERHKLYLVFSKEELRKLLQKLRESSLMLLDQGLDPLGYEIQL
UniProt Q8TEA1: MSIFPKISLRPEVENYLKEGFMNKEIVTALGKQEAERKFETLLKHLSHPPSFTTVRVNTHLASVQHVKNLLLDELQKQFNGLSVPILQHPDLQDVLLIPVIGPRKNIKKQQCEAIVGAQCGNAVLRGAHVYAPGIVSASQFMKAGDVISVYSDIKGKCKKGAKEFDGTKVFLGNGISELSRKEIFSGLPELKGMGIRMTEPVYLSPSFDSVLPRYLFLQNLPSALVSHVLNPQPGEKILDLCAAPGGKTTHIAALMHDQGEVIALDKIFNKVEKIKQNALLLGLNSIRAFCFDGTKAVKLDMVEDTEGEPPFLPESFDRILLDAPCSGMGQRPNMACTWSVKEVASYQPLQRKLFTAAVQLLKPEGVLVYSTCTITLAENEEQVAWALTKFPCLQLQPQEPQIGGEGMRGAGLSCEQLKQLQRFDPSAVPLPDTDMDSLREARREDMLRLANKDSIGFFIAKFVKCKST
UniProt Q8N543: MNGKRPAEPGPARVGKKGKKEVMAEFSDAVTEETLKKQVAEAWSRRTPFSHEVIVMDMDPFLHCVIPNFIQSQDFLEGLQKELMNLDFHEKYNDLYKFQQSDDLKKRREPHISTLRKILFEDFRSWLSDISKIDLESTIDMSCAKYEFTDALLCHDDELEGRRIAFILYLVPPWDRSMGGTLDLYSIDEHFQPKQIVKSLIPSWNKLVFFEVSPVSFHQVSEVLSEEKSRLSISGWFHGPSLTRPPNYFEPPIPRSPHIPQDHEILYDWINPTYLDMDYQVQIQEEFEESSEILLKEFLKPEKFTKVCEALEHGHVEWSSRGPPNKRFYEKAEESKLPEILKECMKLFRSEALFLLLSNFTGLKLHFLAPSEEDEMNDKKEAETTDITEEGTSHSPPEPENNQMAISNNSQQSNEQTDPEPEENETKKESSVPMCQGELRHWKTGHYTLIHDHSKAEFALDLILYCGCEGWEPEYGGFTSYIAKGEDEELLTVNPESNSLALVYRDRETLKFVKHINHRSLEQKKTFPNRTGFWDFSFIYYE
UniProt O15294: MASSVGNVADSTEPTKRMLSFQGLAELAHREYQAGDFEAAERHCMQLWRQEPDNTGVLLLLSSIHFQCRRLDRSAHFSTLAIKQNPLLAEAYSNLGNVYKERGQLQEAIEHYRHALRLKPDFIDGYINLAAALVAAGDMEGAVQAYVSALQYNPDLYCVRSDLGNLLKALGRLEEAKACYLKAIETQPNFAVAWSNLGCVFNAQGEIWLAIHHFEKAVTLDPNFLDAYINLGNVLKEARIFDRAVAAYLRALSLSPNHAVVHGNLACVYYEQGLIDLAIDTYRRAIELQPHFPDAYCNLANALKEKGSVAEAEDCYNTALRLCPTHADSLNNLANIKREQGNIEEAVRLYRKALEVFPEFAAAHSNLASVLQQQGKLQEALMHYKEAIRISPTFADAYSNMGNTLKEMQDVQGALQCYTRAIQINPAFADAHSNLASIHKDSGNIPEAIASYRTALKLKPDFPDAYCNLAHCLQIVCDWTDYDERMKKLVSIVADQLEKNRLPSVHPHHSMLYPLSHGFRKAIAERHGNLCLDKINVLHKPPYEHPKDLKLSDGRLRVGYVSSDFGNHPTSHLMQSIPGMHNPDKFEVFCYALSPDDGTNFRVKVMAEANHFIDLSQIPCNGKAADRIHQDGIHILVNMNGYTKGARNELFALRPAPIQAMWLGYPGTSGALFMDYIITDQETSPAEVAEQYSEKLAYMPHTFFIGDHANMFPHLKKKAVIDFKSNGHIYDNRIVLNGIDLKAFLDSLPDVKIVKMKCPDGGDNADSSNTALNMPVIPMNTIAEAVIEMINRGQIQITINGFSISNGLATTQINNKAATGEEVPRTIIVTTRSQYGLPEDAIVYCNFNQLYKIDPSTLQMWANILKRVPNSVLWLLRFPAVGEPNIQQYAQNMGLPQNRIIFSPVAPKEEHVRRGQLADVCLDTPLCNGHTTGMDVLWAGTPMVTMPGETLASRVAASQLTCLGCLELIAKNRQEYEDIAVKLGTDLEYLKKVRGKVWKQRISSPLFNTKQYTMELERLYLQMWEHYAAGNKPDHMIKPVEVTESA

ibrutinib = compound: C=CC(=O)N1CCC[C@@H](n2nc(-c3ccc(Oc4ccccc4)cc3)c3c(N)ncnc32)C1 [ibrutinib]
Method in brief: as §1

[1] = compound: CC(=O)c1cnc2ccc(-c3cc(Cl)c(O)c(Cl)c3)nc2c1N[C@H]1CC[C@H](CN(C)C)CC1
Method in brief: as §1

ralimetinib = compound: CC(C)(C)Cn1c(N)nc2ccc(-c3[nH]c(C(C)(C)C)nc3-c3ccc(F)cc3)nc21 [ralimetinib]
Method in brief: as §1

[2] = compound: CC(C)(O)CC(=O)NCCn1ccc2ncnc(Nc3ccc(Oc4cccc(C(F)(F)F)c4)c(Cl)c3)c21
Method in brief: as §1

[3] = compound: CC(C)C1=C2N=C(C=C(N2N=C1)NCC3=CC=CC=C3)NCCCCCCN
Method in brief: as §1

[4] = compound: CC(C)C[C@@H](C=O)NC(=O)[C@H](CC(C)C)NC(=O)[C@H](CC(C)C)NC(=O)OCc1ccccc1
Method in brief: as §1

pinometostat = compound: CC(C)N(C[C@H]1O[C@@H](n2cnc3c(N)ncnc32)[C@H](O)[C@@H]1O)[C@H]1C[C@@H](CCc2nc3cc(C(C)(C)C)ccc3[nH]2)C1 [pinometostat]
Method in brief: as §1

[5] = compound: CC1=C(C(CC(=O)N1)C2=CC=C(C=C2)C(F)(F)F)C(=O)NC3=C(C=C4C(=C3)C=NN4)F
Method in brief: as §1

[6] = compound: CC1=C(C2=C(C=C1)C(=O)C3=CC=CC=C3N2CCCN)C
Method in brief: as §1

[7] = compound: CC1=C(C=C(C=C1)NC(=O)C2=CC(=CC=C2)C(C)(C)C#N)NC3=CC4=C(C=C3)N=CN(C4=O)C
Method in brief: as §1

[8] = compound: CC1=C(C=C(C=C1)NC(=O)C2=CC(=CC=C2)N(C)C)NC(=O)C3=CC=C(C=C3)O
Method in brief: as §1

[9] = compound: CC1=CC=C(C=C1)SC2=C3C=C(SC3=CN=C2)C(=O)N
Method in brief: as §1

[10] = compound: CC1=NC(=CC=C1)C2=C(N=C(N2)C(C)(C)C)C3=CC4=NC=CN=C4C=C3
Method in brief: as §1

Nexturastat A = compound: CCCCN(Cc1ccc(C(=O)NO)cc1)C(=O)Nc1ccccc1 [Nexturastat A]
Method in brief: as §1

vemurafenib = compound: CCCS(=O)(=O)Nc1ccc(F)c(C(=O)c2c[nH]c3ncc(-c4ccc(Cl)cc4)cc23)c1F [vemurafenib]
Method in brief: as §1

[11] = compound: CCCS(=O)(=O)Nc1ccc(F)c(C(=O)c2c[nH]c3ncc(Cl)cc23)c1F
Method in brief: as §1

[12] = compound: CCCc1cc(C)[nH]c(=O)c1CNC(=O)c1cc(-c2ccnc(N3CCN(C)CC3)c2)cc2c1cnn2C(C)C
Method in brief: as §1

givinostat = compound: CCN(CC)Cc1ccc2cc(COC(=O)Nc3ccc(C(=O)NO)cc3)ccc2c1 [givinostat]
Method in brief: as §1

barasertib = compound: CCN(CCCOc1ccc2c(Nc3cc(CC(=O)Nc4cccc(F)c4)[nH]n3)ncnc2c1)CCOP(=O)(O)O [barasertib]
Method in brief: as §1

Measured: log2 fold change

NUDCD1 (UniProt Q96RS6)
inactive: IRAK-1-4 Inhibitor I 0.017 | ibrutinib -0.032 | [1] 0.004 | ralimetinib -0.024 | [2] -0.031 | [3] -0.045 | [4] -0.055 | pinometostat 0.006 | [5] 0.004 | [6] -0.003 | [7] 0.003 | [8] -0.008 | [9] 0.012 | [10] 0.02 | Nexturastat A -0.024 | vemurafenib 0.033 | [11] 0.035 | [12] -0.036 | givinostat 0.028 | barasertib 0.009

OS9 (UniProt Q13438)
inactive: IRAK-1-4 Inhibitor I -0.053 | ibrutinib 0.006 | [1] 0.002 | ralimetinib 0.014 | [2] -0.005 | [3] -0.018 | [4] 0.099 | pinometostat 0.015 | [5] 0.019 | [6] -0.067 | [7] 0.015 | [8] -0.008 | [9] -0.006 | [10] -0.006 | Nexturastat A 0.019 | vemurafenib -0.069 | [11] -0.001 | [12] -0.048 | givinostat 0.041 | barasertib -0.009

NUS1 (UniProt Q96E22)
inactive: IRAK-1-4 Inhibitor I 0.08 | ibrutinib 0.016 | [1] 0.049 | ralimetinib -0.099 | [2] 0.013 | [3] 0.042 | [4] 0.062 | pinometostat 0.084 | [5] -0.078 | [6] 0.032 | [7] -0.014 | [8] 0.002 | [9] 0.073 | [10] -0.047 | Nexturastat A -0.131 | vemurafenib -0.036 | [11] -0.038 | [12] -0.139 | givinostat -0.081 | barasertib 0.05

P4HA1 (UniProt P13674)
inactive: IRAK-1-4 Inhibitor I -0.052 | ibrutinib -0.07 | [1] 0.017 | ralimetinib 0.061 | [2] 0.043 | [3] -0.037 | [4] 0.031 | pinometostat 0.081 | [5] 0.022 | [6] 0.033 | [7] -0.002 | [8] -0.032 | [9] -0.053 | [10] -0.052 | Nexturastat A 0.076 | vemurafenib -0.017 | [11] -0.06 | [12] 0.077 | givinostat -0.013 | barasertib -0.035

OSTM1 (UniProt Q86WC4)
inactive: IRAK-1-4 Inhibitor I 0.05 | ibrutinib -0.006 | [1] 0.013 | ralimetinib 0.042 | [2] -0.081 | [3] -0.041 | [4] 0.079 | pinometostat -0.056 | [6] -0.024 | [7] -0.051 | [8] -0.047 | [9] 0 | [10] 0.056 | Nexturastat A -0.033 | vemurafenib 0.017 | [11] 0.093 | [12] -0.03 | givinostat 0.146 | barasertib -0.023

NT5DC1 (UniProt Q5TFE4)
inactive: IRAK-1-4 Inhibitor I 0.049 | ibrutinib 0.021 | [1] -0.039 | ralimetinib -0.054 | [2] -0.019 | [3] 0.02 | [4] -0.011 | pinometostat -0.024 | [6] -0.022 | [7] 0.149 | [8] -0.018 | [9] -0.019 | [10] 0.021 | Nexturastat A -0.068 | vemurafenib -0.001 | [11] -0.016 | [12] -0.003 | givinostat 0.004 | barasertib -0.039

NUP93 (UniProt Q8N1F7)
inactive: IRAK-1-4 Inhibitor I -0.129 | ibrutinib -0.102 | [1] -0.037 | ralimetinib 0 | [2] -0.082 | [3] -0.135 | [4] -0.008 | pinometostat 0.005 | [5] -0.031 | [6] 0.01 | [7] 0.032 | [8] 0.058 | [9] 0.004 | [10] 0.03 | Nexturastat A 0.039 | vemurafenib 0.066 | [11] 0.096 | [12] 0.017 | givinostat 0.064 | barasertib 0.068

NUP43 (UniProt Q8NFH3)
inactive: IRAK-1-4 Inhibitor I 0.055 | ibrutinib 0.02 | [1] -0.021 | ralimetinib -0.006 | [2] 0.031 | [3] 0.032 | [4] -0.007 | pinometostat -0.026 | [5] 0.016 | [6] -0.03 | [7] -0.014 | [8] -0.019 | [9] 0.029 | [10] 0.031 | Nexturastat A 0.019 | vemurafenib -0.016 | [11] 0.068 | [12] -0.003 | givinostat -0.103 | barasertib -0.004

OPA1 isoform 2 (UniProt O60313)
active: [3] -0.375
inactive: IRAK-1-4 Inhibitor I -0.008 | ibrutinib -0.009 | [1] -0.05 | ralimetinib 0.043 | [2] -0.201 | [4] 0.004 | pinometostat 0.03 | [6] 0.1 | [7] 0.01 | [8] -0.064 | [9] 0.027 | [10] -0.003 | Nexturastat A -0.018 | vemurafenib -0.001 | [11] 0.095 | [12] -0.002 | givinostat 0.052 | barasertib 0.045

NUP58 (UniProt Q9BVL2)
inactive: IRAK-1-4 Inhibitor I -0.008 | ibrutinib -0.076 | [1] -0.034 | ralimetinib -0.091 | [2] 0.017 | [3] 0.08 | [4] 0.013 | pinometostat -0.059 | [5] 0.011 | [6] 0.035 | [7] -0.055 | [8] 0.042 | [9] 0 | [10] 0.011 | Nexturastat A -0.007 | vemurafenib 0.003 | [11] 0.009 | [12] -0.029 | givinostat -0.002 | barasertib 0.023

NSMCE2 (UniProt Q96MF7)
inactive: IRAK-1-4 Inhibitor I -0.023 | ibrutinib -0.171 | [1] -0.107 | ralimetinib 0.176 | [2] 0.051 | [3] 0.122 | [4] -0.083 | pinometostat -0.001 | [6] -0.122 | [7] 0.019 | [8] -0.052 | [9] 0.006 | [10] 0.056 | Nexturastat A 0.064 | vemurafenib -0.007 | [11] 0.021 | [12] 0.018 | givinostat -0.076 | barasertib 0.078

NUMB (UniProt P49757)
active: [1] -0.318
inactive: IRAK-1-4 Inhibitor I 0.008 | ibrutinib -0.05 | ralimetinib 0.049 | [2] -0.062 | [3] -0.086 | [4] 0.053 | pinometostat 0.061 | [6] 0.079 | [7] -0.006 | [8] 0.018 | [9] -0.067 | [10] -0.046 | Nexturastat A 0.09 | vemurafenib 0.026 | [11] -0.002 | [12] 0.004 | givinostat 0.02 | barasertib -0.01

NUP107 (UniProt P57740)
inactive: IRAK-1-4 Inhibitor I -0.054 | ibrutinib -0.152 | [1] -0.035 | ralimetinib 0.035 | [2] 0.023 | [3] -0.005 | [4] 0.089 | pinometostat 0.165 | [6] -0.052 | [7] -0.035 | [8] 0.085 | [9] 0.117 | [10] 0.012 | Nexturastat A 0.17 | vemurafenib 0.1 | [11] 0.219 | [12] -0.031 | givinostat 0.011 | barasertib 0.017

NSUN6 (UniProt Q8TEA1)
inactive: IRAK-1-4 Inhibitor I 0.032 | ibrutinib 0.046 | [1] -0.01 | ralimetinib -0.027 | [2] -0.015 | [3] 0.023 | [4] -0.034 | pinometostat -0.014 | [5] -0.025 | [6] 0.023 | [7] -0.015 | [8] -0.015 | [9] -0.012 | [10] 0.004 | Nexturastat A -0.042 | vemurafenib 0.009 | [11] 0.026 | [12] -0.018 | givinostat -0.032 | barasertib 0.022

Copied from the listing (two entries):
NSMCE2 (UniProt Q96MF7)
inactive: IRAK-1-4 Inhibitor I -0.023 | ibrutinib -0.171 | [1] -0.107 | ralimetinib 0.176 | [2] 0.051 | [3] 0.122 | [4] -0.083 | pinometostat -0.001 | [6] -0.122 | [7] 0.019 | [8] -0.052 | [9] 0.006 | [10] 0.056 | Nexturastat A 0.064 | vemurafenib -0.007 | [11] 0.021 | [12] 0.018 | givinostat -0.076 | barasertib 0.078

NUMB (UniProt P49757)
active: [1] -0.318
inactive: IRAK-1-4 Inhibitor I 0.008 | ibrutinib -0.05 | ralimetinib 0.049 | [2] -0.062 | [3] -0.086 | [4] 0.053 | pinometostat 0.061 | [6] 0.079 | [7] -0.006 | [8] 0.018 | [9] -0.067 | [10] -0.046 | Nexturastat A 0.09 | vemurafenib 0.026 | [11] -0.002 | [12] 0.004 | givinostat 0.02 | barasertib -0.01

Next part:

OGFOD1 (UniProt Q8N543)
inactive: IRAK-1-4 Inhibitor I 0.07 | ibrutinib -0.036 | [1] 0.009 | ralimetinib -0.05 | [2] -0.023 | [3] -0.018 | [4] 0.035 | pinometostat -0.011 | [6] 0.036 | [7] -0.013 | [8] -0.01 | [9] 0.013 | [10] 0.033 | Nexturastat A -0.061 | vemurafenib -0.01 | [11] -0.006 | [12] 0.006 | givinostat -0.112 | barasertib 0.009

OGT (UniProt O15294)
inactive: IRAK-1-4 Inhibitor I -0.016 | ibrutinib -0.005 | [1] -0.081 | ralimetinib 0.013 | [2] -0.04 | [3] 0.012 | [4] 0.028 | pinometostat -0.016 | [5] -0.064 | [6] 0.148 | [7] 0.034 | [8] -0.028 | [9] -0.026 | [10] 0.024 | Nexturastat A 0.035 | vemurafenib 0.064 | [11] 0.043 | [12] 0.023 | givinostat 0.037 | barasertib 0.007
